Values from PubChem BioAssay AID1259308 (NCATS, 2017).
In all, the deposit lists about 59,000 reagents; this is a part drawn at random. About 1,510 of all reagents (2.6%) count as active. 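Calls use total luciferase alone and ignore viability, so some active siRNAs may act by altering cell number.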 Reagents against one gene are numbered here. Not all columns of the deposit are shown. Reagent sequences are not shown.

Screen: 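Genes whose loss raises luciferase production in HEK293 cells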 (primary screen)
Cell system: human HEK293 embryonic kidney cells stably expressing firefly luciferase (HEK-CMV-Luc2-Hygro)
Reagent: single siRNA against human genes, 0.8 pmol siRNA per well
Time to read-out: 72 h
Measured: 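Reporter luminescence and viable-cell signal on separate replicate plates, given as percent of non-targeting control and median/MAD z-scores, plus per-cell luciferase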
Scale: total luciferase, z-score: higher = more reporter protein produced
Active means: 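An siRNA counts as active if its total luciferase robust z-score exceeds 3; genes with two or more such siRNAs out of three were retested with fresh siRNAs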
Calls: active = raised luciferase; inactive = no rise

With knock-down of COX7A2 #1 the results were total luciferase, z-score -0.357; inactive.
After knock-down of COX7A2 #2, the record shows total luciferase, z-score 0.393; inactive.
Depletion of COX7A2 #3 came out at: total luciferase, z-score 0.663; inactive.
ANAPC7 #1 gave total luciferase, z-score -0.188; inactive.
ANAPC7 #2 showed total luciferase, z-score -1.44; inactive.
Against ANAPC7 #3, the entry reads total luciferase, z-score -1.19; inactive.

Not a retest: an excerpt of the list.
ANAPC7 #2: total luciferase, z-score = -1.44; activity call = inactive
ANAPC7 #3: total luciferase, z-score = -1.19; activity call = inactive

Continued.
After knock-down of AKR1B10 #1, the record shows total luciferase, z-score 0.204; inactive.
Against AKR1B10 #2 the deposit lists total luciferase, z-score -0.0943; inactive.
AKR1B10 #3 showed total luciferase, z-score -0.0706; inactive.
SLC23A3 #1 gave total luciferase, z-score 1.73; inactive.
After knock-down of SLC23A3 #2 the results were total luciferase, z-score 0.0254; inactive.
For SLC23A3 #3 the deposit lists total luciferase, z-score -1.28; inactive.
